Test results taken from publication PMC11576107.
No constants are given. Whether binding was seen depends on the method and setting. Binding seen in cells or lysates may run through a third protein. Some binding calls cover weakened binding; strength is not graded here. Sequences can lack the tags named with a protein.

By UniProt entry, the sequences of proteins in these tests, tags left out.
UniProt Q684P5: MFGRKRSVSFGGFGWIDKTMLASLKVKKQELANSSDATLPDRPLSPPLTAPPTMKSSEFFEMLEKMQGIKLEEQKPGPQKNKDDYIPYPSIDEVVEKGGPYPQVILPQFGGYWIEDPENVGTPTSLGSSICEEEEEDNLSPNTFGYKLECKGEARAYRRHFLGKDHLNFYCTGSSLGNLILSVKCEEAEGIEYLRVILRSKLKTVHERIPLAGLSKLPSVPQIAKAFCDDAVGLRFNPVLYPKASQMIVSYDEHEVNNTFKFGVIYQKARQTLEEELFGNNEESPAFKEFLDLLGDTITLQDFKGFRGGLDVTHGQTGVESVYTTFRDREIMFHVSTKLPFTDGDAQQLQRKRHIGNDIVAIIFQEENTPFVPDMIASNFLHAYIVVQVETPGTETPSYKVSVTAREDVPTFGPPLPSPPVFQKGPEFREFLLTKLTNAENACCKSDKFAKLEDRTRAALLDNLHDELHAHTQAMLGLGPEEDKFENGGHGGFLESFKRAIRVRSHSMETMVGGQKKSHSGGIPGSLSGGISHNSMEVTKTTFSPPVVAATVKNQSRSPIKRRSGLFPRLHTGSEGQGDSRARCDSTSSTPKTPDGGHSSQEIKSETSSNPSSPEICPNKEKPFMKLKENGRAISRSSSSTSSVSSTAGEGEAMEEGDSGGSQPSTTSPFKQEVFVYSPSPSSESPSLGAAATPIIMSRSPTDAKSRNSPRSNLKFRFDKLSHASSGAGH
UniProt P49674: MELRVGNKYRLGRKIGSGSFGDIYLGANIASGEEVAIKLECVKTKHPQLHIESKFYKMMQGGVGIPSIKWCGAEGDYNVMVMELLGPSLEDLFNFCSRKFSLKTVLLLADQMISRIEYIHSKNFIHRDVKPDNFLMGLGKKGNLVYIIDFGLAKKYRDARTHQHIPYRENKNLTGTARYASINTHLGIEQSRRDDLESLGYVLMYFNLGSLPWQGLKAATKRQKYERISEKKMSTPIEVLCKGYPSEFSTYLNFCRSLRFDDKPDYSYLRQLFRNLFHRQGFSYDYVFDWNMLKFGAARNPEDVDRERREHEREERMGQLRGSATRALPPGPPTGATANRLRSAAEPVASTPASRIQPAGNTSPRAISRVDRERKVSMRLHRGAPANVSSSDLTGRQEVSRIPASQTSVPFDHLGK

Columns and labels:
myc-xDvl2 (Xenopus) = target: T1, myc-xDvl2 (Xenopus) (UniProt P51142); test: co-IP; MDCK cells transfected 24 h; lysis buffer 50 mM Tris pH 7.5, 150 mM NaCl, 1 mM EDTA, 0.5% NP40; IP with Flag M2, GFP or myc antibody and protein G sepharose, or Flag M2 beads; Western blot
T1 sequence: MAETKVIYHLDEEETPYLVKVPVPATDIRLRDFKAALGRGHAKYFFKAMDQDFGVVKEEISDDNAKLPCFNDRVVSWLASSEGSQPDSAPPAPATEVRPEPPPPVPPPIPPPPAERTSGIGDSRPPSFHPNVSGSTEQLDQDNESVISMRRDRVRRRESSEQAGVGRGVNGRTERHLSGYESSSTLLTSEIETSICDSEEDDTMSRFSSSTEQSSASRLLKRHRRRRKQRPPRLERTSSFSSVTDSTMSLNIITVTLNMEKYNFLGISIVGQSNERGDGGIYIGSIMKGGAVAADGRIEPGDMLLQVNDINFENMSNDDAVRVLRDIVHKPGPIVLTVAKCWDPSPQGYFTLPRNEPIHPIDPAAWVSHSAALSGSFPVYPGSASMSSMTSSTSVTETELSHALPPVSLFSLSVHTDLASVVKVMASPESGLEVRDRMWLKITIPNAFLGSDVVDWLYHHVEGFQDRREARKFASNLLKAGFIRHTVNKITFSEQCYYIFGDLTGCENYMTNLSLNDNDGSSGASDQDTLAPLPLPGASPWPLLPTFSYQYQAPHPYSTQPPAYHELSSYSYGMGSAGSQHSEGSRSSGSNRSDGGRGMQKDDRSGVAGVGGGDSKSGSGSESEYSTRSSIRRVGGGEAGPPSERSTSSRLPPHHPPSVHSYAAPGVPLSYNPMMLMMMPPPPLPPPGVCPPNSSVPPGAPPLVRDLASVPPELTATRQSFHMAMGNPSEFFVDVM

hRap1GAP2-Flag (human) = hRap1GAP2-Flag (human) (UniProt Q684P5); test: as above

hCK1ε (from UniProt P49674 1-416) (enzyme)
binding (myc-xDvl2 (Xenopus)): binds

B1: myc-xDvl2 (protein, UniProt P51142 1-736)
chain: T1 sequence
binding (hRap1GAP2-Flag (human)): binds
